{"source": "the supplement of paper PMC12819154", "about": "“High-throughput peptide-centric local stability assay extends protein–ligand identification to membrane proteins, tissues and bacteria” (Nature Structural & Molecular Biology, 2025)", "note": "The list shows a part of the results, in another mix than the full data. Most values lie at the level of the controls, where differences are scatter.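 Also: lysate desalted by size exclusion to strip endogenous ATP, peptide intensities built from DIA-NN precursor signals, and peptides missing any value discarded before comparison.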"}
{"compound": "Nc1ncnc2c1ncn2[C@@H]1O[C@H](COP(=O)(O)OP(=O)(O)OP(=O)(O)O)[C@@H](O)[C@H]1O [adenosine 5'-triphosphate]", "assay": "log2 fold change of tryptic peptide abundance, ligand vs vehicle (limited proteolysis) (log2 ratio); higher = more trypsin-susceptible (destabilized)", "conditions": "ligand concentration: 5 mM; sample: E. coli desalted lysate; replicate design: treated before aliquoting", "description": "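HT-PELSA: desalted E. coli K-12 BW25113 lysate (with 12 mM MgCl2) incubated with 5 mM ATP (pH 7) or water for 30 min at 25 C, then a 4 min trypsin pulse at 22 C. Peptides were quantified by DIA-MS (4 replicates). Value is the peptide log2 fold change (treated/control); negative = stabilized. Scale: negative = ligand-stabilized region.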"}
{"target": "UniProt P76072 (peptide sequence: AGEATEQASAAAR, peptide start residue: 341)", "log2 fold change": -0.0808}
{"target": "UniProt P71242 (peptide sequence: RYQHQVLLSR, peptide start residue: 83)", "log2 fold change": 0.308}
{"target": "UniProt P76108 (peptide sequence: AQHSLIHR, peptide start residue: 227)", "log2 fold change": 0.505}
{"target": "UniProt P76227 (peptide sequence: AEGILLQCQRDDK, peptide start residue: 64)", "log2 fold change": -0.474}
{"target": "UniProt P76016 (peptide sequence: EAIINAAQVTGGR, peptide start residue: 594)", "log2 fold change": -0.563}
{"target": "UniProt P75831 (peptide sequence: AQVVVLDSNTR, peptide start residue: 399)", "log2 fold change": 0.0674}
{"target": "UniProt P77221 (peptide sequence: DVQGPILR, peptide start residue: 209)", "log2 fold change": 0.43}
{"target": "UniProt P76204 (peptide sequence: AVFDGLFTR, peptide start residue: 153)", "log2 fold change": 0.339}
{"target": "UniProt P75737 (peptide sequence: RCQSENCQQELK, peptide start residue: 148)", "log2 fold change": 0.583}
{"target": "UniProt P76148 (peptide sequence: GHPVFIAQHATATCCRGCLAK, peptide start residue: 66)", "log2 fold change": -0.286}
{"target": "UniProt P75804 (peptide sequence: AEIWSYGIR, peptide start residue: 206)", "log2 fold change": -0.463}
{"target": "UniProt P75809 (peptide sequence: KYDDAMK, peptide start residue: 117)", "log2 fold change": 0.239}
{"target": "UniProt P75823 (peptide sequence: EAWEFTR, peptide start residue: 151)", "log2 fold change": -0.4}
{"target": "UniProt P75818 (peptide sequence: ELLTNDPFSSR, peptide start residue: 86)", "log2 fold change": 0.304}
{"target": "UniProt P75966 (peptide sequence: EFIPVQGVYAAGRLDR, peptide start residue: 65)", "log2 fold change": 0.168}
{"target": "UniProt P76510 (peptide sequence: VILCLTR, peptide start residue: 94)", "log2 fold change": -0.11}
{"target": "UniProt P75938 (peptide sequence: LSAETQATR, peptide start residue: 181)", "log2 fold change": 0.976}
{"target": "UniProt P76280 (peptide sequence: KTSLTEQVAHHLEFVR, peptide start residue: 15)", "log2 fold change": 0.375}
{"target": "UniProt P75691 (peptide sequence: QPLEPMDITR, peptide start residue: 13)", "log2 fold change": 0.205}
{"target": "UniProt P76219 (peptide sequence: RSPLTHPK, peptide start residue: 226)", "log2 fold change": -0.00722}
{"target": "UniProt P76231 (peptide sequence: HNIEAQHMTIDTNGQMVMK, peptide start residue: 52)", "log2 fold change": -0.421}
{"target": "UniProt P76192 (peptide sequence: NYTPINDAK, peptide start residue: 530)", "log2 fold change": -0.352}
{"target": "UniProt P76172 (peptide sequence: IQSDISQR, peptide start residue: 29)", "log2 fold change": -0.0374}
{"target": "UniProt P76073 (peptide sequence: TLLDYIEGNIKK, peptide start residue: 39)", "log2 fold change": 0.0101}
{"target": "UniProt P77161 (peptide sequence: QALMGGFASSR, peptide start residue: 202)", "log2 fold change": 0.627}
{"target": "UniProt P76555 (peptide sequence: HEGQTMIAK, peptide start residue: 190)", "log2 fold change": -0.605}
{"target": "UniProt P75793 (peptide sequence: CYGMFTDEQK, peptide start residue: 136)", "log2 fold change": -0.755}
{"target": "UniProt P75839 (peptide sequence: CANPEWTK, peptide start residue: 215)", "log2 fold change": 0.536}
{"target": "UniProt P75973 (peptide sequence: VYHDTMVK, peptide start residue: 74)", "log2 fold change": -0.3}
{"target": "UniProt P76254 (peptide sequence: ASQQSMLICCSRAK, peptide start residue: 300)", "log2 fold change": -0.666}
{"target": "UniProt P76561 (peptide sequence: SMQFALDHLR, peptide start residue: 197)", "log2 fold change": 0.0352}
{"target": "UniProt P76569 (peptide sequence: ILGMNSAR, peptide start residue: 51)", "log2 fold change": 0.141}
{"target": "UniProt P75797 (peptide sequence: LDSITWRPVADNNTR, peptide start residue: 215)", "log2 fold change": 0.529}
{"target": "UniProt P76112 (peptide sequence: IAWFEAR, peptide start residue: 40)", "log2 fold change": -0.48}
{"target": "UniProt P76461 (peptide sequence: ANSTAEALGALRPAFDK, peptide start residue: 222)", "log2 fold change": 0.51}
{"target": "UniProt P67662 (peptide sequence: LEDELQVK, peptide start residue: 40)", "log2 fold change": 0.311}
{"target": "UniProt P75990 (peptide sequence: NEDSPSAIAVGQR, peptide start residue: 197)", "log2 fold change": 0.384}
{"target": "UniProt P76373 (peptide sequence: QQADVIISNR, peptide start residue: 358)", "log2 fold change": -0.0561}
{"target": "UniProt P76243 (peptide sequence: KAFHGEVVDYATFR, peptide start residue: 52)", "log2 fold change": -0.292}
{"target": "UniProt P76633 (peptide sequence: VLDHIPANR, peptide start residue: 217)", "log2 fold change": -0.294}
